The entries are a selection whose mix differs from that of the whole data set. Calls are pooled over several reports, among them a noisy single-well screen. The list shows a part of the results.
How the values were obtained:
Details in all cases: stereoisomer not certain
[1] = molecular target: T1, UniProt Q8VG53
T1 sequence (whole entry): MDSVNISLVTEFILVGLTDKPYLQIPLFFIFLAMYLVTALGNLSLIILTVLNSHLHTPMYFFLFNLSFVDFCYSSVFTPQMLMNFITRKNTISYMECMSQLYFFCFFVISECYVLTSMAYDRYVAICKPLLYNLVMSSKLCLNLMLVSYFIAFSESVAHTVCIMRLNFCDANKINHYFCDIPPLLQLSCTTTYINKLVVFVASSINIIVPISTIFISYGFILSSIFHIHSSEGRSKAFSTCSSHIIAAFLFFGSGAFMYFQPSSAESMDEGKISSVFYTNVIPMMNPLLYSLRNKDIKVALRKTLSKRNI
In short: (§1)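 Assay methods differ from source to source, frequently being transient luciferase assays in mammalian cell lines. For each receptor–molecule pair, the label responsive (active) applies when the original authors judged the measured signal statistically different from baseline, and non-responsive (inactive) applies otherwise.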

By UniProt entry, the sequences of proteins in these tests, tags left out. Chains listed by the source or under a name are the forms on record and can include a tag or linker.
UniProt Q8VG28, as listed by the source: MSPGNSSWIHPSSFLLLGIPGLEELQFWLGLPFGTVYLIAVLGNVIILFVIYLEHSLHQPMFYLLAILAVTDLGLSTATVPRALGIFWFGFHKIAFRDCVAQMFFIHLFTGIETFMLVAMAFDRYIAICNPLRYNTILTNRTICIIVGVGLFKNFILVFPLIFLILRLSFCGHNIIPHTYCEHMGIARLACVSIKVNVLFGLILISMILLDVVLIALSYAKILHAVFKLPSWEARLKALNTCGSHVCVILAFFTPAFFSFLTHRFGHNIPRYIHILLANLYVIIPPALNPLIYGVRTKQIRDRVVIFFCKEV
UniProt Q8VGE3, as listed by the source: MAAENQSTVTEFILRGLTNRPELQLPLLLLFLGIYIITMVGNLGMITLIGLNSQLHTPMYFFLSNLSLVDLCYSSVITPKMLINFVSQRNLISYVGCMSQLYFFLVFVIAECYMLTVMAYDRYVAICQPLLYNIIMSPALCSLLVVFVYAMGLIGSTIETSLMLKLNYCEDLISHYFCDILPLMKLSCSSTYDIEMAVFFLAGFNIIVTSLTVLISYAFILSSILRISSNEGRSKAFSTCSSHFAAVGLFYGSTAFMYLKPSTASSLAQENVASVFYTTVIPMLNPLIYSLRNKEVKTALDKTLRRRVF

[2] = molecular target: T2, UniProt Q8VG64
T2 sequence (whole entry): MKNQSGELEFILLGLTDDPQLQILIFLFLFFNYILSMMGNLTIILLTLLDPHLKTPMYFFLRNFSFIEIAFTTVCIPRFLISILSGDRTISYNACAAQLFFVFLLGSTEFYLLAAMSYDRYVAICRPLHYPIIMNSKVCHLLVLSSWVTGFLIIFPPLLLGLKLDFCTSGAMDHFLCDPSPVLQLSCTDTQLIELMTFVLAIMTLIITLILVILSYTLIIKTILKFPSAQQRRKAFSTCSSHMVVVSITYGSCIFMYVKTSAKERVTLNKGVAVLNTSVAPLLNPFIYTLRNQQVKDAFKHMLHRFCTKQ
In short: as §1

[3] = molecular target: T3, UniProt Q8VGB9
T3 sequence (whole entry): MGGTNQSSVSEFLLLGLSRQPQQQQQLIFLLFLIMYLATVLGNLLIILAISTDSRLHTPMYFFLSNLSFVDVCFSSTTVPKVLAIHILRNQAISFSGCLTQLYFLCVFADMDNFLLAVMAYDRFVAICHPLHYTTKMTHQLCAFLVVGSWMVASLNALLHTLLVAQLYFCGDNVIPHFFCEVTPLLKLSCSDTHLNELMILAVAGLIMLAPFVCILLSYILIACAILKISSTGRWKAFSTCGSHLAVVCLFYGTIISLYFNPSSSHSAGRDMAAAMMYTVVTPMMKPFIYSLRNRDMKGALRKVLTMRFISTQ
In short: as §1

[4] = molecular target: T4, UniProt Q8VGC6
T4 sequence (whole entry): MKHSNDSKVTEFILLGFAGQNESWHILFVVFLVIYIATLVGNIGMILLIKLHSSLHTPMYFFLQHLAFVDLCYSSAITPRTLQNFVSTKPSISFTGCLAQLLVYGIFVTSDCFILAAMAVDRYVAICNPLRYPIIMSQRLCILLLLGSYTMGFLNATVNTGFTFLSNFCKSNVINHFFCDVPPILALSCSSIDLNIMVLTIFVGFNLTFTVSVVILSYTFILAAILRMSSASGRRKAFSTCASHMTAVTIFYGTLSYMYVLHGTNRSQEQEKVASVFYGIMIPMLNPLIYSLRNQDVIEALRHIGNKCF
In short: as §1

[5] = molecular target: UniProt Q8VG28
In short: as §1

[6] = molecular target: T5, UniProt Q8VG49
T5 sequence (whole entry): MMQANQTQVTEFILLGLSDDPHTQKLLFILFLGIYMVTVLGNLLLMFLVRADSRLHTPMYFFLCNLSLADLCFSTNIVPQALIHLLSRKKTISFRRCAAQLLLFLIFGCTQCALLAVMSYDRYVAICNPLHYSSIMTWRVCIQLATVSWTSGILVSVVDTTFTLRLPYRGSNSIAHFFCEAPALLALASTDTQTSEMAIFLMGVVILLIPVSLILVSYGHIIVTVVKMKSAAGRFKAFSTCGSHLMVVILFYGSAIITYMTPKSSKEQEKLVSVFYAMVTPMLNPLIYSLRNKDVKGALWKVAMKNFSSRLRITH
In short: as §1

[7] = molecular target: T6, UniProt Q8VG77
T6 sequence (whole entry): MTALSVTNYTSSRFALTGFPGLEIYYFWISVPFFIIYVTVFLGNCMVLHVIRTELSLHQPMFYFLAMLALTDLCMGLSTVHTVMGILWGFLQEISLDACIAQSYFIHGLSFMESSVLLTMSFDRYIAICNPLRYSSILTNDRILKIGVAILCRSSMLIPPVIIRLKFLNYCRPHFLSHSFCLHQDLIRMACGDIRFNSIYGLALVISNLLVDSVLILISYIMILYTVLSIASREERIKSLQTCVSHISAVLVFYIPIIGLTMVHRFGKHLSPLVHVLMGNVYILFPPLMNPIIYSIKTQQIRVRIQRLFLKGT
In short: as §1

[8] = molecular target: T7, UniProt Q8VG96
T7 sequence (whole entry): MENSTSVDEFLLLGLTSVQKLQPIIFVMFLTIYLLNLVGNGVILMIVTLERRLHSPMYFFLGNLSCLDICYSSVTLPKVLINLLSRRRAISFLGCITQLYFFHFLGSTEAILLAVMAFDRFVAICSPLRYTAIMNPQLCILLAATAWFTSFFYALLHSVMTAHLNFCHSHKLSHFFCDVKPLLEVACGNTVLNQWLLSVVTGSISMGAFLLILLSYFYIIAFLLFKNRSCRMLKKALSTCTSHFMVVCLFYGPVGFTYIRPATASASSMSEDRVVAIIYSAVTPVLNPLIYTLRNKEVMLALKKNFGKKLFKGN
In short: as §1

[9] = molecular target: T8, UniProt Q8VGD7
T8 sequence (whole entry): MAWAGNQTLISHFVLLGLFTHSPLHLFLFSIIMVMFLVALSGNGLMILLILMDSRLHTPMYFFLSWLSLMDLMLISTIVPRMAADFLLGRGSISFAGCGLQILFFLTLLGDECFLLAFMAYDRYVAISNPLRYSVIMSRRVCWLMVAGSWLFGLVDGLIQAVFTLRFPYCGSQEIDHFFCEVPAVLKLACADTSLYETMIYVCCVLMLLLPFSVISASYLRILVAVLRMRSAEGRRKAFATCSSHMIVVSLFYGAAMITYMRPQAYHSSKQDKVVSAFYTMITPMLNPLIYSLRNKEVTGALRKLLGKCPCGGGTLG
In short: as §1

[10] = molecular target: UniProt Q8VGE3
In short: as §1

C=CC(C)(O)CCC=C(C)C (stereo not drawn)
odorant receptor agonist call [1]: inactive
odorant receptor agonist call [2]: inactive
odorant receptor agonist call [3]: inactive
odorant receptor agonist call [4]: inactive

CCCCCCC=O
odorant receptor agonist call [5]: inactive
odorant receptor agonist call [6]: inactive
odorant receptor agonist call [1]: inactive
odorant receptor agonist call [2]: inactive
odorant receptor agonist call [7]: inactive
odorant receptor agonist call [8]: inactive
odorant receptor agonist call [3]: inactive
odorant receptor agonist call [4]: inactive
odorant receptor agonist call [9]: inactive

CC1CCC(C(C)C)C(O)C1 (stereo not drawn)
odorant receptor agonist call [4]: inactive

CC1=CCC(C(C)(C)O)CC1 (stereo not drawn)
odorant receptor agonist call [4]: inactive

CC(=O)OC1CC2CCC1(C)C2(C)C (stereo not drawn)
odorant receptor agonist call [1]: inactive
odorant receptor agonist call [2]: inactive
odorant receptor agonist call [3]: active
odorant receptor agonist call [4]: inactive

C=CCc1ccc(OC)c(OC)c1
odorant receptor agonist call [1]: inactive
odorant receptor agonist call [2]: inactive
odorant receptor agonist call [3]: inactive
odorant receptor agonist call [4]: inactive

CC1COCc2cc3c(cc21)C(C)(C)C(C)C3(C)C (stereo not drawn)
odorant receptor agonist call [1]: inactive
odorant receptor agonist call [2]: inactive
odorant receptor agonist call [3]: active
odorant receptor agonist call [4]: inactive

O=C1CCCCCCCCCCCCCCO1
odorant receptor agonist call [1]: inactive
odorant receptor agonist call [2]: inactive
odorant receptor agonist call [3]: inactive
odorant receptor agonist call [4]: inactive

COc1ccccc1O
odorant receptor agonist call [1]: inactive
odorant receptor agonist call [2]: inactive
odorant receptor agonist call [3]: inactive
odorant receptor agonist call [4]: inactive

CC(=O)c1ccccc1
odorant receptor agonist call [5]: inactive
odorant receptor agonist call [6]: inactive
odorant receptor agonist call [1]: inactive
odorant receptor agonist call [2]: inactive
odorant receptor agonist call [7]: inactive
odorant receptor agonist call [8]: active
odorant receptor agonist call [3]: inactive
odorant receptor agonist call [4]: inactive
odorant receptor agonist call [9]: inactive
odorant receptor agonist call [10]: active

O=C1CCCCC1
odorant receptor agonist call [6]: inactive
odorant receptor agonist call [7]: inactive
odorant receptor agonist call [8]: inactive
odorant receptor agonist call [4]: inactive
odorant receptor agonist call [9]: active

CC(C)CC(=O)O
odorant receptor agonist call [5]: inactive
odorant receptor agonist call [1]: inactive
odorant receptor agonist call [2]: inactive
odorant receptor agonist call [3]: inactive
odorant receptor agonist call [4]: inactive

CCCCCOC(C)=O
odorant receptor agonist call [5]: inactive
odorant receptor agonist call [1]: inactive
odorant receptor agonist call [2]: inactive
odorant receptor agonist call [3]: inactive
odorant receptor agonist call [4]: inactive

CC(C)C=O
odorant receptor agonist call [1]: inactive
odorant receptor agonist call [2]: inactive
odorant receptor agonist call [3]: inactive
odorant receptor agonist call [4]: inactive

COc1cc(C=O)ccc1O
odorant receptor agonist call [1]: inactive
odorant receptor agonist call [2]: inactive
odorant receptor agonist call [3]: inactive
odorant receptor agonist call [4]: inactive

C=C(C)C1CC=C(C)C(=O)C1 (stereo not drawn)
odorant receptor agonist call [5]: inactive
odorant receptor agonist call [6]: inactive
odorant receptor agonist call [1]: inactive
odorant receptor agonist call [2]: inactive
odorant receptor agonist call [7]: inactive
odorant receptor agonist call [8]: active
odorant receptor agonist call [3]: inactive
odorant receptor agonist call [4]: active
odorant receptor agonist call [9]: inactive
odorant receptor agonist call [10]: active

C=CCc1ccc(O)c(OC)c1
odorant receptor agonist call [5]: inactive
odorant receptor agonist call [1]: inactive
odorant receptor agonist call [2]: inactive
odorant receptor agonist call [3]: inactive
odorant receptor agonist call [4]: inactive

Source: the M2OR odorant receptor database
